Screen size: about 360,000 compounds; about 7,500 (2.1%) were called active. Inconclusive means that the source gave no clear call. Such entries were picked first, then a sample of the others. The call rests on the fitted dose curve; in most records, active means well fitted inhibition curve with a large enough effect; inconclusive means small, poorly fitted or top-dose-only effect, or effect the other way; inactive means flat fitted curve, though single readings scatter. Potencies of inconclusive entries are doubtful fits and often do not repeat.
assay: Nrf2 qHTS screen for inhibitors; settings: A549 ARE-Fluc reporter, luciferase luminescence, 18-24 h; activity change, negative = inhibition: at 46 µM (top of the series); further: nearly all actives have a fitted effect of over 60% in size
Method in brief: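 In this cell-based qHTS, ARE-driven firefly luciferase in A549 cells reports Nrf2 activity; the luminescent signal after BugLite lysis is the measured value, with a prior CellTiter-Fluor read for cell health.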
On the % scale 0 is the no-effect control and ±100 the full control effect; potency means the concentration at half of the fitted maximal effect.

**Q.** Which Potency does the source give for CCn1c(SCC(=O)N(C)c2c(N)n(Cc3ccccc3)c(=O)[nH]c2=O)nc2ccccc21 here?
**A.** inconclusive: 20.6 µM [falling, single point]

**Q.** With COC(=O)c1cc(F)c(S(=O)(=O)N2CCN(S(=O)(=O)c3ccc4c(c3)OCCO4)CC2)cc1F as the compound, how does the Potency read?
**A.** inactive

**Q.** For Cc1nn(C)c(C)c1CNC(=O)c1nn2c(c1Cl)NC(c1cccs1)CC2C(F)(F)F (centres undefined), which Potency is on record?
**A.** active: 16.4 µM

**Q.** For c1ccc(-n2nnc3ccccc32)nc1, which Potency is on record?
**A.** inconclusive: 29.1 µM [activator, partial curve, poor fit]

**Q.** With CCCC(=O)Nc1sc2c(c1C#N)CCCCC2 as the compound, how does the Potency read?
**A.** inconclusive: 2.31 µM [activator, full curve, poor fit]

**Q.** With N#C/C(=C/c1cccc([N+](=O)[O-])c1)c1nnc2n1CCCCC2 as the compound, how does the Potency read?
**A.** inconclusive: 29.1 µM [falling, single point]

**Q.** Which Potency does the source give for O=C(Cc1ccccc1)N/N=C/c1ccc(-c2ccc([N+](=O)[O-])cc2)o1 here?
**A.** inactive

**Q.** For Cc1ccc(OCc2cc(C(=O)N(CCO)Cc3cccs3)no2)cc1C, which Potency is on record?
**A.** inconclusive: 23.1 µM [activator, partial curve, poor fit]

**Q.** Which Potency does the source give for COc1cccc(NC(=O)N(CCCN2CCOCC2)C(C)c2cc3ccccc3o2)c1 (centres undefined) here?
**A.** inconclusive: 6.51 µM [activator, single point]

**Q.** With CCCS(=O)(=O)N1CCC(C(=O)NC2CCCC(C)C2C)CC1 (centres undefined) as the compound, how does the Potency read?
**A.** inconclusive: 18.4 µM [activator, single point]

**Q.** With O=S(=O)(NCc1cccnc1)c1cccc2nsnc12 as the compound, how does the Potency read?
**A.** inconclusive: 16.4 µM [falling, partial curve, poor fit]

**Q.** Which Potency does the source give for CCn1c(=O)c([N+](=O)[O-])c(Cl)c2ccccc21 here?
**A.** inconclusive: 32.6 µM [activator, partial curve, poor fit]

**Q.** Which Potency does the source give for O=[N+]([O-])c1nn(-c2ccc(Cl)cc2)n(O)c1=NCc1ccccc1 here?
**A.** inconclusive: 18.4 µM [activator, single point]

**Q.** Which Potency does the source give for CC12CCC(O)CC1=CCC1C2CCC2(C)C1CCC21CCC(=O)O1 (centres undefined) here?
**A.** inconclusive: 25.9 µM [falling, partial curve, poor fit]

**Q.** Which Potency does the source give for COc1cccc(C2C3=C(N=c4s/c(=C\c5ccc(OCC(=O)O)cc5)c(=O)n42)c2ccccc2CC3)c1 (centres undefined) here?
**A.** inactive

**Q.** For C=CCn1c(=NC(=O)c2cccs2)sc2cc(NC(C)=O)ccc21, which Potency is on record?
**A.** inconclusive: 0.651 µM [activator, full curve, poor fit]

**Q.** With Cc1c(S(=O)(=O)NC2CCCCC2)c(=O)n(C)c(=O)n1C as the compound, how does the Potency read?
**A.** inconclusive: 5.17 µM [falling, single point]

**Q.** With COc1ccc(CNC(=O)c2cc(S(=O)(=O)N3CCCCC3)ccc2Cl)cc1OC as the compound, how does the Potency read?
**A.** active: 16.4 µM

**Q.** Which Potency does the source give for CC[C@H](C)[C@H](NC(N)=O)C(=O)NCCc1ccc(OC)c(OC)c1 here?
**A.** inconclusive: 29.1 µM [falling, single point]

**Q.** For CC(C)C[C@H](NC(=O)c1ccc(OC2CCN(C(=O)C3CC3)CC2)cc1)C(N)=O, which Potency is on record?
**A.** inconclusive: 29.1 µM [falling, partial curve, poor fit]

**Q.** With C=CCn1c(=O)c2ccc(C(=O)NCc3ccccc3)cc2n(Cc2cccc(Cl)c2)c1=O as the compound, how does the Potency read?
**A.** inactive

**Q.** For Clc1cccc(Nc2ncnc3c2nc2n3CCCCC2)c1, which Potency is on record?
**A.** inconclusive: 0.206 µM [activator, full curve, poor fit]

**Q.** For O=c1c2[nH]c3ccccc3c2ncn1Cc1ccco1, which Potency is on record?
**A.** inactive

**Q.** For Cn1c(=O)oc2cc(S(=O)(=O)CCC(=O)NCc3ccc(Cl)cc3)ccc21, which Potency is on record?
**A.** inconclusive: 13 µM [activator, partial curve, poor fit]

**Q.** Which Potency does the source give for O=C(Nc1cccn(Cc2c(Cl)cccc2Cl)c1=O)c1ccc(Cl)cc1 here?
**A.** inconclusive: 4.61 µM [falling, full curve]

**Q.** For COC(=O)c1cc(NS(=O)(=O)c2ccc(N3CCC(C)CC3)c([N+](=O)[O-])c2)cc(C(=O)OC)c1, which Potency is on record?
**A.** inconclusive: 0.517 µM [falling, partial curve, poor fit]

**Q.** Which Potency does the source give for O=[N+]([O-])c1cccc(-c2nnc(-c3ccccc3F)o2)c1 here?
**A.** inconclusive: 10.3 µM [activator, partial curve]

**Q.** With NC(=S)NN=C1c2ccccc2-c2cc(Br)ccc21 as the compound, how does the Potency read?
**A.** inactive

**Q.** Which Potency does the source give for O=C1N=C(N2CCN(c3ccccc3)CC2)SC1Cc1ccccc1 (centres undefined) here?
**A.** inconclusive: 23.1 µM [falling, partial curve, poor fit]

**Q.** Which Potency does the source give for O=C(CSc1nc(N2CCCCC2)nc(N2CCCCC2)n1)N1CCN(c2ccccc2)CC1 here?
**A.** inconclusive: 23.1 µM [falling, single point]

**Q.** For C[C@H](CO)N1C[C@H](C)[C@@H](CN(C)S(=O)(=O)c2ccc(F)cc2)Oc2ccc(NC(=O)Nc3ccc(C(F)(F)F)cc3)cc2C1=O, which Potency is on record?
**A.** inconclusive: 29.1 µM [falling, single point]

**Q.** Which Potency does the source give for O=C(CCCCCn1c(=O)c2sccc2n(CC(=O)Nc2ccccc2F)c1=O)NCc1ccc2c(c1)OCO2 here?
**A.** inactive

**Q.** With Cc1nn(Cc2c(Cl)cccc2Cl)c(C)c1NC(=O)c1sc2ccccc2c1Cl as the compound, how does the Potency read?
**A.** inconclusive: 29.1 µM [falling, single point]

**Q.** Which Potency does the source give for CC(=O)c1c(C)[nH]c(C(=O)Nc2ccc(C)cc2Br)c1C here?
**A.** inconclusive: 6.51 µM [activator, partial curve]

**Q.** With O=c1[nH]c(CSc2nc(-c3ccccc3)cs2)nc2ccccc12 as the compound, how does the Potency read?
**A.** inconclusive: 29.1 µM [falling, single point]

**Q.** With COc1ccc(N/N=C(/N=Nc2nc(C)cc(=O)[nH]2)c2ccccc2)cc1 as the compound, how does the Potency read?
**A.** inconclusive: 29.1 µM [falling, single point]

**Q.** For CCc1ccc(S(=O)(=O)c2nnn3c2nc(N(CC)Cc2ccccc2)c2cc(Cl)ccc23)cc1, which Potency is on record?
**A.** inconclusive: 1.64 µM [activator, full curve, poor fit]

**Q.** Which Potency does the source give for CC(C)Cc1ccc(S(=O)(=O)N2CCN(C(=O)c3ccco3)CC2)cc1 here?
**A.** active: 18.4 µM

**Q.** Which Potency does the source give for COC(=O)c1cc(-c2ccccc2)sc1N here?
**A.** inconclusive: 6.51 µM [activator, partial curve, poor fit]

**Q.** Which Potency does the source give for COC(=O)c1ccc(N2C(=O)CC(Sc3n[nH]c(C)n3)C2=O)cc1 (centres undefined) here?
**A.** inconclusive: 0.0731 µM [activator, full curve, poor fit]

**Q.** With S=C(NN=Cc1ccccn1)N(Cc1ccccn1)Cc1ccccn1 as the compound, how does the Potency read?
**A.** inconclusive: 2.59 µM [falling, full curve]

**Q.** With Cc1cc2n(n1)CCCN2C(=O)Nc1ccccc1C(F)(F)F as the compound, how does the Potency read?
**A.** inconclusive: 20.6 µM [activator, partial curve, poor fit]

**Q.** Which Potency does the source give for CN(C)c1nnnn1-c1ccc(Oc2ncc(C(F)(F)F)cc2Cl)cc1 here?
**A.** inconclusive: 16.4 µM [falling, single point]

**Q.** With COc1ccc(CC(=O)Nc2ccc(S(=O)(=O)N3CCCCC3)cc2)cc1OC as the compound, how does the Potency read?
**A.** inconclusive: 23.1 µM [falling, partial curve, poor fit]

**Q.** For Cc1ccc2nc(SCC(=O)Nc3ccc4c(c3)OCCO4)nc(=O)n2c1, which Potency is on record?
**A.** inconclusive: 20.6 µM [falling, single point]

**Q.** Which Potency does the source give for C/C(=N\NC(=O)c1ccco1)c1ccc(NC(=O)C(F)(F)F)cc1 here?
**A.** inconclusive: 20.6 µM [activator, single point]

**Q.** Which Potency does the source give for O=C(COc1ccccc1Cl)c1ccc[nH]1 here?
**A.** inconclusive: 8.2 µM [activator, partial curve]

**Q.** For O=C(Nc1ccc2c(c1)OCO2)NC1(C(F)(F)F)Oc2ccccc2O1, which Potency is on record?
**A.** inconclusive: 25.9 µM [activator, single point]

**Q.** Which Potency does the source give for Cc1oc(-c2cccc(Cl)c2)nc1Cn1c(SCc2ccc(F)cc2)nc2cccnc21 here?
**A.** active: 18.4 µM

**Q.** With O=C(NCC1CCCCC1)C1(CC2CC(c3cccc(Br)c3)=NO2)CCNCC1 (centres undefined) as the compound, how does the Potency read?
**A.** inactive

**Q.** Which Potency does the source give for COCCn1c(SCc2nc3scc(-c4ccc(Cl)cc4)c3c(=O)[nH]2)nnc1-c1cccc(C)c1 here?
**A.** inconclusive: 29.1 µM [falling, single point]

**Q.** Which Potency does the source give for COc1ccccc1OCC(=O)NNC(=O)C1CCN(c2ncnc3sc(C)c(C)c23)CC1 here?
**A.** active: 23.1 µM

**Q.** For COc1ccc(-c2nnn(Cc3ccccc3F)n2)cc1, which Potency is on record?
**A.** inconclusive: 4.61 µM [activator, partial curve]

**Q.** For CNC(=O)c1cnc2sc(N3CCC(C)CC3)nn2c1=O, which Potency is on record?
**A.** inconclusive: 1.84 µM [falling, partial curve, poor fit]

**Q.** For CCCCOc1cccc(C2c3c(-c4cc(C)ccc4O)n[nH]c3C(=O)N2CCOC)c1 (centres undefined), which Potency is on record?
**A.** inactive

**Q.** For O=C(Nc1ccc2c(c1)OCCO2)c1c(F)cccc1F, which Potency is on record?
**A.** inconclusive: 10.3 µM [activator, partial curve, poor fit]

**Q.** For Cc1nn(Cc2ccccc2)c(C)c1/C=N/NC(=O)CNc1cccc(C(F)(F)F)c1, which Potency is on record?
**A.** inconclusive: 18.4 µM [falling, single point]

**Q.** With O=[N+]([O-])c1ccccc1/C=N/Nc1nc(N2CCCC2)nc(N2CCCC2)n1 as the compound, how does the Potency read?
**A.** inconclusive: 29.1 µM [falling, single point]

**Q.** With COc1ccc(C2c3ccc4ccccc4c3Oc3ncn(CCO)c(=N)c32)cc1OC (centres undefined) as the compound, how does the Potency read?
**A.** inconclusive: 6.51 µM [falling, partial curve, poor fit]

**Q.** Which Potency does the source give for COc1cccc(Nc2nc(CC(C)=O)ns2)c1 here?
**A.** inactive

**Q.** With COc1ccc(NC(=O)CNC(=O)Cn2ccc3ccccc3c2=O)cc1OC as the compound, how does the activity change, negative = inhibition read?
**A.** inactive: 4.4% [at 9.27 µM]

**Q.** For COc1ccc(-c2cc(C(F)(F)F)n3nc(C(=O)N4CCCC4)cc3n2)cc1, which Potency is on record?
**A.** inconclusive: 29.1 µM [activator, single point]

**Q.** Which Potency does the source give for Cc1ccc(-c2csc(Cc3nc(-c4cc5ccccc5oc4=O)cs3)n2)cc1 here?
**A.** active: 4.61 µM

**Q.** With O=C(O)CN1C(=O)/C(=C\c2cccc(OC(=O)c3ccco3)c2)SC1=S as the compound, how does the Potency read?
**A.** inconclusive: 29.1 µM [activator, single point]

Reference: PubChem BioAssay AID504444 (National Center for Advancing Translational Sciences (NCATS), 2011)
